# In patent US20030229003, “Use of transcription factors for treating inflammation and other diseases” (published 2003):
# Chains of the proteins cited; added tags and fusions are not shown. Chains listed by the source or under a name are the forms on record and can include a tag or linker.
# NF-kB p50/p65 (Homo sapiens), one chain, as listed by the source, chain 1 of 2: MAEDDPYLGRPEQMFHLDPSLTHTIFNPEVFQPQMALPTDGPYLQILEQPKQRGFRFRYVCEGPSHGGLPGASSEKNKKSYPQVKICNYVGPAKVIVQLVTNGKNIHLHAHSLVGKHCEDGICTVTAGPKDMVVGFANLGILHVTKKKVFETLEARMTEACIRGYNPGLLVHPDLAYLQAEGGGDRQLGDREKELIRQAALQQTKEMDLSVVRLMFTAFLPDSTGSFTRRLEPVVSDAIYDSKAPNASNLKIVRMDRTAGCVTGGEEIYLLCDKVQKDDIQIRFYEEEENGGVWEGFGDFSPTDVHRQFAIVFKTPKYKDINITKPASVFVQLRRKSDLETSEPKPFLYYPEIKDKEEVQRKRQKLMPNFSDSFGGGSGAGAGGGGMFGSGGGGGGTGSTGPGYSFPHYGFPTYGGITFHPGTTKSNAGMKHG
# NF-kB p50/p65 (Homo sapiens), one chain, as listed by the source, chain 2 of 2: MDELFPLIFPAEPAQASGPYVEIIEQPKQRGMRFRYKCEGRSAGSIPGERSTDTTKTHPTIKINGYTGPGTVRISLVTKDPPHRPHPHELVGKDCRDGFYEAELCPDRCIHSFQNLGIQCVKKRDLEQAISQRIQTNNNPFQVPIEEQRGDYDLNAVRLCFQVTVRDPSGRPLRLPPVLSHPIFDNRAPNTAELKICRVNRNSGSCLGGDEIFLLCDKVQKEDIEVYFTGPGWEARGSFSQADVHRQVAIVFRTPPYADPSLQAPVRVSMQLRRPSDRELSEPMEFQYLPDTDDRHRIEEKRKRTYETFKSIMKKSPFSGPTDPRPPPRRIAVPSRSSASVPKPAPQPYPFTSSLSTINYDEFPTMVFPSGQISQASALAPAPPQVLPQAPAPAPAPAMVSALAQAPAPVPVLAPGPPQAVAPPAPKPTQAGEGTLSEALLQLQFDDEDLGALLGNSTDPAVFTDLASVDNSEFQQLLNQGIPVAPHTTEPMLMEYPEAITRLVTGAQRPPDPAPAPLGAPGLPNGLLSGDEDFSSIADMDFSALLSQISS
# Assays:
# [1] = tested on: NF-kB p50/p65 (Homo sapiens); assay: competition with a labelled probe; conditions: unlabeled mutant competitor 1-100 ng; specificity stated as confirmed, non-competition implied; protein in an extract; variant of ESE-1 promoter NF-kB site wild type
# [2] = tested on: NF-kB p50/p65 (Homo sapiens); assay: EMSA; conditions: protein in an extract, label: 32P
# [3] = target: T1, ESE-1 (ELF3) (Homo sapiens) (UniProt P78545); assay: EMSA; conditions: weak complex; data not shown; protein translated in vitro; protein details: pCI/ESE-1, TNT rabbit reticulocyte lysate; label: 32P
# T1 sequence (looked up, limits assumed): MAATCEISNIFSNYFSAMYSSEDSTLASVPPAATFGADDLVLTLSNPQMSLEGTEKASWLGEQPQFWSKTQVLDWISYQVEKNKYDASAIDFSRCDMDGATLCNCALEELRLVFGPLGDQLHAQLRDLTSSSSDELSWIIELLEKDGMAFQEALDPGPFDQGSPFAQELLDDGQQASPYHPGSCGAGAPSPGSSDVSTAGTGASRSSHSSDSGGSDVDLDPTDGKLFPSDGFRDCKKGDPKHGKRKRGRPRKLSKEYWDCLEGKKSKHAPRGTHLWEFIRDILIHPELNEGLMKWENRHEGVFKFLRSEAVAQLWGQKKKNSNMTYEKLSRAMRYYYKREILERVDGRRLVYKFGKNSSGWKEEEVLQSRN
sequence,measurement,setting,value
AGGCCAGGAAATCGGATCCATC (double strand) [ESE-1 promoter NF-kB site mutant],binding result,[1],no binding
TCGACATGTGGGATTTTCCCATGAC (double strand) [IL-6 promoter NF-kB site],binding result,[2]; complex comigrates with ESE-1/NF-kB complex,binds
TCTCATTTCCGTGGGTAAAAA (double strand) [COX-2 promoter Ets site 5],binding result,[3],binds more weakly
GAGAGAACCTTCCTTTTTATAA (double strand) [COX-2 promoter Ets site 2],binding result,[3],binds more weakly
AGGCCAGGAAATCCCCTCCATC (double strand) [ESE-1 promoter NF-kB site wild type],binding result,"[2]; IL-1beta-inducible complex, supershifted by p50 and p65 antibodies only",binds

# For some assays here: The comparison behind a weaker result is the experiment's own reference, which may not be listed here. For some assays here: Where a protein sequence is shown, tags need not be part of it. For some assays here: Where cells or extracts were used, other partners may take part. For some assays here: The exact form of at least one protein or probe is not confirmed. For some assays here: No signal at the amounts used counts as a negative.
